Experimental findings from paper PMC4222082, “Nitrogen starvation-induced transcriptome alterations and influence of transcription regulator mutants in Mycobacterium smegmatis” are described below.

For at least one entry, the source does not settle the construct or the ends of the probe. Protein sequences can lack the tags named with them.

The data set deals with T1, His6-AmtR (Mycobacterium smegmatis).
T1 sequence (looked up, limits assumed): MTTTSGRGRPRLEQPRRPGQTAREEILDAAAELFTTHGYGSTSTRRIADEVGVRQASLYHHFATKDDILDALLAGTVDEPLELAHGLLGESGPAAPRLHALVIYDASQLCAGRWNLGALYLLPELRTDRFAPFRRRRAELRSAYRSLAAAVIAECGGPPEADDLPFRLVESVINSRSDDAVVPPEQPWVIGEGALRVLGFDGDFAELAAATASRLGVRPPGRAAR
In words: EMSA. Conditions: 5 mM MgCl2, 2 ug sperm DNA, urea and amino acids 0.5-5 mM had no influence; GlnR: DIG Gel Shift Kit (Roche) buffer, 6% native PAGE, 0.5x TBE; AmtR: 20 mM Tris-HCl pH 7.9, 25 mM KCl, 1 mM DTT, 5 mM MgCl2, 0.5 mg/ml BSA, 5% glycerol; recombinant protein; label: 5'-32P; probe letters rebuilt from the primers and the genome.

On to “CGGCGAACGACTCGAACCGGCCGAGCCGGCGATGCAGTTGTTGGTCGTAACCGAACTCCGCGAGGTCGCGGTGGTCGCCGGACGGGTCGGCCACGTCGGGTCCCGGTGCTGTTGCGCTGCTGGTCATGGGTTTTCTCTCTGGCTAGGGGCGCTGCCGCCAGCTCTTACCTGTCAGATGACAGATAACAATGGGCGCGTGTCCTCGGCGTCACCCGAATGTTTCGTTCATGTAGCCGTCGGTAAGCATTCGGTTGCAGAACCCTCACCGCCCGTGGGCCTGTCACAATCGCCGGTATGCCCGCCCCCGACCTCGTGCAGCGCCACATCGACGCGGCGACCTCGGTGGCCGGTCTGCGCGCCGCCACGGCCGAACTGCCCGCGGCTGCGCGCGAACTCGTCGGCGCGCGTGCCGCGACGGTGGCACATGCGTGGTCGGC (double strand) [msmeg_2184 promoter (AmtR probe)]”, for which the binding result is given as “binds”.
